Test results reported in patent US20120329985A1, “Optimal hydolysis conditions of soy protein to produce peptides with lipolysis-stimulating activity and their sequencing and use thereof” (TUNGHAI UNIVERSITY, priority 2011, published 2012).
Not every detail of the peptide structures is certain; ends, links or a residue may be inferred. Where a SMILES comes first, the peptide text is derived from it.

Assays:
3T3-L1 adipocytes [1] = test: Measurement of the glycerol released from 3T3-L1 adipocytes; type: cell-based; conditions: for Glycerol release: 4 ppm fractions and synthetical peptides (FIG. 22), control basal level 312.3
Description: (§1) The precursor cells of 3T3-L1 cell are purchased from Food Industry Research and Development Institute in Taiwan. The purchased precursor cells of 3T3-L1 adipocytes are cultured in 24-wells plate with 1×10^4 cells/well. The cells are cultured with DMEM (Dulbecco's Modified Eagle Medium) containing 10% FBS (Fetal bovine serum) at 37° C. in the incubator with 5% CO2, and refresh cultured medium every two days. While the 3T3-L1 cells are filled within the culture dish, the culture medium is changed to the differentiation medium (DM) for promoting adipocytes differentiation, which is defined as day 0 post-differentiation. The differentiation medium contains 1.74 μM insulin, […] dexamethasone (DEX) and 0.5 mM isobutyl-methylxanthine (IBMX). From day 2 post-differentiation, the culture medium is exchanged to DMEM with 1.74 μM insulin and refreshed every two days until day 8 post-differentiation. On day 8 post-differentiation, the precursor cells would differentiate into mature 3T3-L1 adipocytes.
The 3T3-L1 adipocytes cultured in example 2 are washed by PBS (phosphate buffered saline), and respectively added with 400 ppm ISP hydrolysates prepared according to different hydrolysis condition in example 1 for the following culture until day 11 post-differentiation.
30 μL of the cultured medium is collected and mixed with detecting kit (GY105) to measure the glycerol release. After reaction at room-temperature for 5 minutes, the absorption excited by 520 nm wavelength is measured by spectrophotometer to calculate the glycerol released from adipocytes.

3T3-L1 adipocytes [2] = test: Measurement of the triglyceride residue in 3T3-L1 adipocytes; type: cell-based; conditions: for Triglyceride residue: control 3.2
Description: as §1
On day 11, the cultured cells are washed with PBS and lysed by adding lysis buffer. The supernatant of cell lysis is collected after centrifugation at 13000 rpm for 10 minutes. 10 μL supernatant of cell lysis is mixed with 1 ml triglyceride detecting kit (TR213) and incubated at room-temperature for 5 minutes. After the incubation, the triglyceride residue in the adipocytes could be calculated according to absorption excited by 500 nm wavelength and shown in FIG. 6. In FIG. 6, control experiment is the cells without treatment of ISP hydrolysate or any fractions.

[3] = in the presence of insulin, control with insulin but not peptides (FIG. 28)
[4] = peptide pre-incubated with gastrointestinal enzymes (pepsin pH 2.0 4 hours, then pancreatin 4 hours) (FIGS. 24, 25)
[5] = 4 ppm fractions and synthetical peptides (FIG. 23)
[6] = in the presence of insulin, control with insulin but not peptides (FIG. 29)
[7] = peptide pre-incubated with gastrointestinal enzymes (pepsin pH 2.0 4 hours, then pancreatin 4 hours) (FIGS. 26, 27)

| SMILES | Glycerol release (3T3-L1 adipocytes [1]) [nmol/mg protein] | Effect on glycerol release versus control (3T3-L1 adipocytes [1]; [3]) | Effect on glycerol release versus control (3T3-L1 adipocytes [1]; [4]) | Effect on triglyceride residue versus control (3T3-L1 adipocytes [2]; [5]) | Triglyceride residue (3T3-L1 adipocytes [2]; [5]) [μmol/mg protein] | Effect on triglyceride residue versus control (3T3-L1 adipocytes [2]; [6]) | Effect on triglyceride residue versus control (3T3-L1 adipocytes [2]; [7]) |
| --- | --- | --- | --- | --- | --- | --- | --- |
| CC(C)C[C@H](NC(=O)[C@H](CC(C)C)NC(=O)[C@@H](N)CC(C)C)C(=O)O [Leu-Leu-Leu] (H-Leu-Leu-Leu-OH; N-terminus and C-terminus assumed) | 571.2 | significantly increase | significantly increase | significantly reduce | 1.34 | decrease | decrease |
| CC(C)[C@H](N)C(=O)N[C@@H](Cc1c[nH]cn1)C(=O)N[C@H](C(=O)N[C@H](C(=O)O)C(C)C)C(C)C [Val-His-Val-Val] (H-VHVV-OH; N-terminus and C-terminus assumed) | 682.91 | significantly increase | significantly increase |  | 1.36 | decrease | decrease |
